In PubChem BioAssay AID493014 (National Center for Advancing Translational Sciences (NCATS), 2011):
The other results are listed elsewhere or left out. The main result of the screen is listed elsewhere. These columns were measured beside it and carry no call. Most of these compounds were active or inconclusive in the main read-out, so they are no random draw. The note in brackets gives the kind of curve behind each potency; many fits are weak.

Assay: qHTS Assay to Find Inhibitors of Chronic Active B-Cell Receptor Signaling
Settings: ABC-DLBCL IkBa-CBG/CBR reporter, luminescence ratio (green luciferase fused to IkBa over red control in TMD8 lymphoma cells), 4 h
Summary of the method: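 Concentration-response series (up to 46 uM) were applied to TMD8 dual-reporter cells for 4 h at 37C with doxycycline. Green/red ratio, after filter-overlap correction, defined %Activity; red signal alone was normalised to basal cells and zero luminescence.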

[1] = measured here: CBR red luminescence, cell number
[2] = measured here: IkBa-CBG green luminescence

Structure (SMILES): Cc1cc(-c2[nH]nc3c2C(c2cccc(O)c2)C(C#N)=C(N)O3)c(C)s1 (configuration not stated)
- AC50 [1]: 32.6 µM [falling, single point]

Structure (SMILES): COc1ccccc1OCCNC(=O)C(=O)c1c[nH]c2ccccc12
- AC50 [1]: 3.98 µM [falling, full curve, poor fit]

Structure (SMILES): O=C(NCC1CCCO1)c1cc2c([nH]c3ccccc32)c(-c2cccc(Br)c2)n1 (configuration not stated)
- AC50 [1]: 0.631 µM [falling, full curve, poor fit]

Structure (SMILES): Cn1c(CN2CCC(C(N)=O)CC2)c(C#N)c2ccccc21
- AC50 [1]: 0.366 µM [falling, full curve, poor fit]

Structure (SMILES): CC(C)NC1=C(Cl)C(=O)c2ccccc2C1=O
- AC50 [1]: 4.11 µM [rising, single point]

Structure (SMILES): CCN(C(=O)COC(=O)c1ccc(C)c(S(=O)(=O)N2CCCCC2)c1)C1CCS(=O)(=O)C1 (configuration not stated)
- AC50 [1]: 14.6 µM [falling, partial curve]

Structure (SMILES): O=C(Nc1ccc([N+](=O)[O-])cc1Br)c1cc2ccccc2nc1Cl
- AC50 [1]: 5.62 µM [rising, full curve, poor fit]

Structure (SMILES): O=C1C=C(c2ccccc2)C[C@@H](c2ccc(Cl)cc2)C1
- AC50 [1]: 16.4 µM [rising, single point]

Structure (SMILES): O=C(CCl)Nc1ccc(-c2ccccc2)cc1
- AC50 [1]: 35.5 µM [falling, partial curve, poor fit]
- AC50 [2]: 7.08 µM [rising, partial curve, poor fit]

Structure (SMILES): CC1(O)CC(c2ccc(Cl)cc2)=NN1C(=O)c1ccc(Cl)cc1 (configuration not stated)
- AC50 [1]: 11.2 µM [falling, partial curve, poor fit]

Structure (SMILES): Cc1ccc(CNC(=O)COC(=O)[C@@H]2CC(O)CN2S(=O)(=O)c2ccc3c(c2)OCCO3)cc1 (some centres not stated)
- AC50 [1]: 1.84 µM [rising, full curve, poor fit]

Structure (SMILES): O=c1[nH]cccc1-c1nc2ccccc2n1Cc1cccc(Cl)c1
- AC50 [1]: 1 µM [rising, partial curve]

Structure (SMILES): O=C(Nc1ccc(F)cc1)C(Cc1ccccc1)n1cccc1 (configuration not stated)
- AC50 [1]: 0.708 µM [rising, full curve, poor fit]

Structure (SMILES): COc1cccc(C(=O)O/N=C(\N)c2ccc([N+](=O)[O-])cc2)c1OC
- AC50 [1]: 0.224 µM [rising, full curve, poor fit]

Structure (SMILES): O=C(Nc1ccccn1)c1ccc2ccccc2n1
- AC50 [1]: 10 µM [falling, partial curve]

Structure (SMILES): COC(=O)C(C)Sc1ncnc2c1nnn2-c1ccc(F)cc1 (configuration not stated)
- AC50 [1]: 7.94 µM [falling, partial curve]

Structure (SMILES): COc1cc(/C=C/C(O)=C/C(=O)/C=C/c2ccc(O)cc2)ccc1O
- AC50 [1]: 29.1 µM [falling, single point]

Structure (SMILES): CCCCN1Cc2c(nc3cc(-c4ccco4)[nH]n3c2=O)C1=O
- AC50 [1]: 20 µM [falling, partial curve, poor fit]

Structure (SMILES): Cc1cc(C)cc(NC(=O)c2nnn(Cc3cc(C)ccc3C)c2N)c1
- AC50 [1]: 6.51 µM [falling, partial curve]

Structure (SMILES): CCCCCCCNC(=O)C1(CC2CC(c3cccc(Br)c3)=NO2)CCN(C(=O)OC(C)(C)C)CC1 (configuration not stated)
- AC50 [1]: 5.62 µM [rising, single point]

Structure (SMILES): O=C(Nc1ccccc1C(=O)Nc1nnc(C(F)(F)F)s1)c1ccccc1
- AC50 [1]: 4.47 µM [falling, full curve, poor fit]

Structure (SMILES): COc1ccc(Cn2c(CCCO)nc3ccccc32)cc1OC
- AC50 [1]: 4.61 µM [rising, single point]
- AC50 [2]: 6.51 µM [falling, partial curve, poor fit]

Structure (SMILES): CC(C)(C)Nc1c(-c2ccc(O)cc2)nc2ccc(Cl)cn12
- AC50 [1]: 12.6 µM [falling, partial curve]

Structure (SMILES): Cc1csc(NC(=O)c2cc3ccccc3o2)n1
- AC50 [1]: 6.51 µM [falling, partial curve]

Structure (SMILES): O=C(Nc1nc(-c2ccccn2)cs1)Nc1ccc(F)cc1F
- AC50 [1]: 11.2 µM [falling, partial curve, poor fit]

Structure (SMILES): CN(C)c1ccc(C(=O)NN2C(=O)c3ccccc3C2=O)cc1
- AC50 [1]: 22.4 µM [falling, single point]

Structure (SMILES): Cc1ncc(CN2CCC(N3CCC(C(=O)N4CCCC4)CC3)CC2)s1
- AC50 [1]: 3.55 µM [rising, partial curve]

Structure (SMILES): O=C(Nc1cc(Cl)ccn1)C1CCN(S(=O)(=O)c2cccs2)CC1
- AC50 [1]: 4.11 µM [falling, full curve, poor fit]

Structure (SMILES): CCC(COC(=O)c1ccccc1)Oc1cc(NCc2ccccc2)c2ncn(C(C)C)c2c1 (configuration not stated)
- AC50 [1]: 29.1 µM [falling, single point]

Structure (SMILES): CC1CC(C)CN(c2ccc(S(=O)(=O)N3CCOCC3)cc2)C1 (configuration not stated)
- AC50 [1]: 2.82 µM [rising, full curve]

Structure (SMILES): COc1cc(/C=C(\C#N)C(=O)Nc2ccc3c(c2)OCCO3)ccc1O
- AC50 [1]: 35.5 µM [falling, single point]

Structure (SMILES): CCN1CCN(c2ncc(C(=O)Nc3c(F)cc(F)cc3Br)c3ccccc23)CC1
- AC50 [1]: 16.4 µM [falling, single point]

Structure (SMILES): Cc1ccc(/C=C2\SC(=S)N(CCC(=O)N3CCCCC3)C2=O)cc1
- AC50 [1]: 11.2 µM [falling, single point]

Structure (SMILES): COC(=O)c1ccc(NC(=O)COc2ccc(S(=O)(=O)N3CCCCC3)cc2)cc1
- AC50 [1]: 6.51 µM [falling, single point]

Structure (SMILES): Cc1ccc(S(=O)(=O)c2cn(C)c3cc(N4CCN(C)CC4)c(F)cc3c2=O)cc1
- AC50 [1]: 5.62 µM [falling, single point]

Structure (SMILES): CCCCn1c(=O)[nH]c(=O)c2c1nc(-c1ccccc1F)n2Cc1ccccc1
- AC50 [1]: 35.5 µM [falling, single point]

Structure (SMILES): COc1ccc(S(=O)(=O)N(CC(=O)NCc2ccccc2OC)c2ccc(C)cc2)cc1
- AC50 [1]: 14.1 µM [falling, partial curve, poor fit]

Structure (SMILES): Cc1ccc(S(=O)(=O)N2CCCC2CNC(=O)c2ccc(F)c(F)c2)cc1 (configuration not stated)
- AC50 [1]: 6.51 µM [falling, full curve]

Structure (SMILES): CC(=O)c1c(C)[nH]c(C(=O)OCc2cccc(C)c2)c1C
- AC50 [1]: 1.12 µM [rising, full curve, poor fit]

Structure (SMILES): COc1ccc(-c2cc(-c3ccccc3)nc(SCC(=O)Nc3ncc(C)s3)c2C#N)cc1
- AC50 [1]: 2.31 µM [rising, full curve, poor fit]
